According to article PMC9712689:
These are yes or no findings as the source states them, for the method shown. In cells and extracts the contact can be indirect. These calls come from enrichment with a bait or labelling near it, and not all partners need be listed.

Amino acid sequences for entries named in this document (tags omitted). A change or cut given only in a name is not applied to a line headed by its entry. Residues count along the entry.
UniProt Q9HX24: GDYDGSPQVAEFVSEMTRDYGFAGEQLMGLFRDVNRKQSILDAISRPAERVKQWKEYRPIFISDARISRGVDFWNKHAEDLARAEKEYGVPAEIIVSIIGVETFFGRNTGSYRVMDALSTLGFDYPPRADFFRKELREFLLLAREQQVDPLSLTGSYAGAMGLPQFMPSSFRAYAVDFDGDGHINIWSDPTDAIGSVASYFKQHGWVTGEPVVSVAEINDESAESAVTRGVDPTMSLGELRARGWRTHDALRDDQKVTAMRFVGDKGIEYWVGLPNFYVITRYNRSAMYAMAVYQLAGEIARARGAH
UniProt Q9I4G6: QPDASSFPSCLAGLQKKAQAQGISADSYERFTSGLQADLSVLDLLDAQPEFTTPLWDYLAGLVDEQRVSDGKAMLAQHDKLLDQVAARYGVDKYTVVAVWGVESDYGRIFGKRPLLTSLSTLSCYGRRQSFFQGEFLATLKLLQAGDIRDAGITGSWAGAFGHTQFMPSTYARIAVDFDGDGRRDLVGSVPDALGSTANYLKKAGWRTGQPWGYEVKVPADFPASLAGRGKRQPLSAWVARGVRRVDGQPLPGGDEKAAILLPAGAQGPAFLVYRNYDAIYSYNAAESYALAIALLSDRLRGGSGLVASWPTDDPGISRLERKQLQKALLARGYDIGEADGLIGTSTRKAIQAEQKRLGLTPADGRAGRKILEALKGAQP
UniProt Q9HXN1, residues 33-490: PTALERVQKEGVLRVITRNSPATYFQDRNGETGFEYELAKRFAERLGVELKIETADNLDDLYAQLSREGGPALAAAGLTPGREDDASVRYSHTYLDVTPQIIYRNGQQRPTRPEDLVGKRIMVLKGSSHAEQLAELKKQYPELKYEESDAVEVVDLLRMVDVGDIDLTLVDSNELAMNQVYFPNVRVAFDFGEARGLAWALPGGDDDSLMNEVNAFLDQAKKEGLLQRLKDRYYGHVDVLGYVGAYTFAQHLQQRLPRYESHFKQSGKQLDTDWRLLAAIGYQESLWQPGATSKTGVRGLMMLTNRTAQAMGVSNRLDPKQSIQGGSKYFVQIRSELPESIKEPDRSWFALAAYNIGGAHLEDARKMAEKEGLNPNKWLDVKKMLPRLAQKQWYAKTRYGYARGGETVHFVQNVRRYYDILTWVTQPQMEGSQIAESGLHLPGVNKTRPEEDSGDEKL
UniProt Q9HU67: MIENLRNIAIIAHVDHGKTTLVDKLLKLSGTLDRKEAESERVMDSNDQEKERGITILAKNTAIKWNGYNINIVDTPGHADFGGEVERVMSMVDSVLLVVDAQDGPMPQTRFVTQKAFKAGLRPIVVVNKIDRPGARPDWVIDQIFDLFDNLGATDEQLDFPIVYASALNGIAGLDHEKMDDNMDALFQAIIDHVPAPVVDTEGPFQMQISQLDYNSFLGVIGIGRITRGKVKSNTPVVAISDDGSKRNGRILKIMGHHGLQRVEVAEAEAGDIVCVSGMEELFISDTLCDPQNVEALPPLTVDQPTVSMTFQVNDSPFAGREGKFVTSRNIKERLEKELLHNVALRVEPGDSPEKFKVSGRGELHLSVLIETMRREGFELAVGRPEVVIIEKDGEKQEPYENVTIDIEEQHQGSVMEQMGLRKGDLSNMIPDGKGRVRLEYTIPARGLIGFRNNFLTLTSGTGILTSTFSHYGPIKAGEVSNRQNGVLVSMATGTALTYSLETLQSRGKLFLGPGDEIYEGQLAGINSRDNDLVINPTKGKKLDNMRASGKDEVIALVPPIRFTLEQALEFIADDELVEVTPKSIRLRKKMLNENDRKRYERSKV

Columns and labels:
[1] = biological target: SltB1, N-terminal His-tagged construct (P. aeruginosa) (UniProt Q9HX24); assay: affinity purification with mass spectrometry; N-terminally His-tagged LT on Ni-NTA resin incubated with the soluble or the 0.5% NP-40-solubilised membrane proteome of P. aeruginosa PAO1, 4 °C overnight; eluted with 500 mM imidazole; no cross-linker; only the target purified
[2] = biological target: SltB2, N-terminal His-tagged construct (P. aeruginosa) (UniProt Q9I4G6); assay: as above

| Substance | binding [1] | binding [2] |
| --- | --- | --- |
| MltF (from UniProt Q9HXN1 33-490) | binds | binds |
| PA3999 (from UniProt G3XD74) | binds | – |
| TypA (from UniProt Q9HU67) | binds | binds |
